According to PMC11335345:
Results are given in words; binding and its absence hold for the method and conditions named. Binding seen in cells or lysates may run through a third protein. These calls come from enrichment with a bait or labelling near it, and not all partners need be listed. Tags and fused reporters may be left off the sequences shown.

Target: T1, FBXO24-3×FLAG expressed in testes of transgenic mice under the Prm1 promoter (mouse) (UniProt Q9D417)
T1 sequence: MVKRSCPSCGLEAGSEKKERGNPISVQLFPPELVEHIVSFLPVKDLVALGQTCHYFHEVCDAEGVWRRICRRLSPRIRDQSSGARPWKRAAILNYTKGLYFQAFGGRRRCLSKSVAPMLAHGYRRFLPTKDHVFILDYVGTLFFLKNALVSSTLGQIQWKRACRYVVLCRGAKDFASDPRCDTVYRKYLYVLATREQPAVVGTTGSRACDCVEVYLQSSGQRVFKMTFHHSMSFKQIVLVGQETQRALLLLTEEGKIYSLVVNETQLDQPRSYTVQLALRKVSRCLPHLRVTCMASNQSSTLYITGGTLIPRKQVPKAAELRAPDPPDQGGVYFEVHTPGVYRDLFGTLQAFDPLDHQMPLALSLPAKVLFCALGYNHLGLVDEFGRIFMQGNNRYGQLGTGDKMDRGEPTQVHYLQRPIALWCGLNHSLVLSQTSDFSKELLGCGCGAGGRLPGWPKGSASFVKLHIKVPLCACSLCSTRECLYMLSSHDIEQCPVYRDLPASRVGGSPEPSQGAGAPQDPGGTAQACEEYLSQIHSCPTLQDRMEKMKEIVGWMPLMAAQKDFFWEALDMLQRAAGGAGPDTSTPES
Assay: affinity purification with mass spectrometry; IP of FBXO24-FLAG from Fbxo24-FLAG Tg mouse testes with anti-FLAG antibody; elution with 3×FLAG peptide; MS

binding: binds
B1: IPO5 (importin 5), endogenous in mouse testis (protein, UniProt Q8BKC5 1-1097)
chain: MAAAAAEQQQFYLLLGNLLSPDNVVRKQAEETYENIPGRSKITFLLQAIRNTTAAEEARQMAAVLLRRLLSSAFDEVYPALPSDVQTAIKSELLMIIQMETQSSMRKKICDIAAELARNLIDEDGNNQWPEGLKFLFDSVSSQNMGLREAALHIFWNFPGIFGNQQQHYLDVIKRMLVQCMQDQEHPSIRTLSARATAAFILANEHNVALFKHFADLLPGFLQAVNDSCYQNDDSVLKSLVEIADTVPKYLRPHLEATLQLSLKLCGDTNLNNMQRQLALEVIVTLSETAAAMLRKHTSLIAQTIPQMLAMMVDLEEDEDWANADELEDDDFDSNAVAGESALDRMACGLGGKLVLPMIKEHIMQMLQNPDWKYRHAGLMALSAIGEGCHQQMEGILNEIVNFVLLFLQDPHPRVRYAACNAVGQMATDFAPGFQKKFHEKVIAALLQTMEDQGNQRVQAHAAAALINFTEDCPKSLLIPYLDNLVKHLHSIMVLKLQELIQKGTKLVLEQVVTSIASVADTAEEKFVPYYDLFMPSLKHIVENAVQKELRLLRGKTIECISLIGLAVGKEKFMQDASDVMQLLLKTQTDFNDMEDDDPQISYMISAWARMCKILGKEFQQYLPVVMGPLMKTASIKPEVALLDTQDMENMSDDDGWEFVNLGDQQSFGIKTAGLEEKSTACQMLVCYAKELKEGFVEYTEQVVKLMVPLLKFYFHDGVRVAAAESMPLLLECARVRGPEYLTQMWHFMCDALIKAIGTEPDSDVLSEIMHSFAKCIEVMGDGCLNNEHFEELGGILKAKLEEHFKNQELRQVKRQDEDYDEQVEESLQDEDDNDVYILTKVSDILHSIFSSYKEKVLPWFEQLLPLIVNLICPQRPWPDRQWGLCIFDDIVEHCSPASFKYAEYFISPMLQYVCDNSPEVRQAAAYGLGVMAQFGGDNYRPFCTDALPLLVRVIQAPEAKTKENVNATENCISAVGKIMKFKPDCVNVEEVLPHWLSWLPLHEDKEEAVQTFSYLCDLIESNHPIVLGPNNTNLPKIFSIIAEGEMHEAIKHEDPCAKRLANVVRQVQTSGGLWTECIAQLSPEQQAAIQELLNSA
